Results from patent US20140179593A1 (published 2014).
Results are given in words; binding and its absence hold for the method and conditions named. In cells and extracts the contact can be indirect. Some results given as binding are weak or reduced against the parent protein; the word gives no strength.

Protein sequences, listed by entry. Tags and fused reporters are not part of them. Lines headed by an entry give the natural chain unless they say otherwise; changes in a name come on top.
UniProt P61081: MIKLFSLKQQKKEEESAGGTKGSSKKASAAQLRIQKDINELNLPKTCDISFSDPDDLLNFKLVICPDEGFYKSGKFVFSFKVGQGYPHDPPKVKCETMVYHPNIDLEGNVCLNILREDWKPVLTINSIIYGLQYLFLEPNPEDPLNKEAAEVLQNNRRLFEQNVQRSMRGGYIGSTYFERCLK
UniProt P29595: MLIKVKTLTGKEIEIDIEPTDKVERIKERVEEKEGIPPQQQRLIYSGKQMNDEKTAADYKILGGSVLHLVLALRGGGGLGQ

Target: Endogenous hUbc12 (Homo sapiens) (UniProt P61081)
Experiment: co-immunoprecipitation from 293T cells, LC-MS/MS

With TAP-hNedd8 (from UniProt P29595 1-76) the binding was “binds”.
